Reference: patent US6399570B1, “Antimicrobial/endotoxin neutralizing polypeptide” (priority 1999, dated 2002)
Not every detail of the peptide structures is certain; ends, links or a residue may be inferred. Marks after values point to notes of the source that are not given here. Where a SMILES comes first, the peptide text is derived from it.

Assays:
P. aer. LPS = assay: Limulus ELISA, ENC50 against P. aer. LPS; type: biochemical, Pseudomonas aeruginosa; settings: endotoxin 200 EU/ml; mean +/− SD
Description: (§1) The peptide-mediated inhibition of endotoxin-induced Limulus amebocyte lysate (LAL) coagulation was measured with a sensitive LAL assay (Zhang et al., J. Clin. Microbiol. 32: 416-422 (1994)). Limulus ELISA is an endotoxin assay based on activation of the LAL coagulation by endotoxin and detection of the generated peptide-C immunoreactivity with an ELISA using a monoclonal antibody to the polypeptide. Endotoxin was defined to be neutralized when it lost its ability to activate the LAL enzymes. The 50% endotoxin-neutralizing concentration (ENC50) reflects the potency of an anti-endotoxin agent; a low ENC50 indicates high potency. Table 2 lists the determined ENC50 value of each anti-endotoxin agent against lipid A and four different types of LPS. […]
(§2) LPS. […] The potency of the above endotoxin was determined with the Limulus enzyme-linked immunosorbent assay (ELISA, 43) in comparison with US Pharmacopeia reference standard endotoxin EC-5.
(§3) Briefly, 25 μl endotoxin solution (200 EU/ml) was mixed with an equal volume of test materials in a series of two-fold dilution in 0.15 M NaCl in a sterile 96-well tissue culture plate (Nunc A/S, Roskilde, Denmark), and incubated at 37° C. for 1 h in a dry-air incubator. […] The endotoxin activity was then quantified with the use of Limulus ELISA (Zhang et al., J. Clin. Microbiol. 32: 416-422 (1994)). […]

S. abortus LPS = assay: Limulus ELISA, ENC50 against S. abortus LPS; type: biochemical, Salmonella abortus equi; settings: endotoxin 200 EU/ml; mean +/− SD
Description: as §1, §2, §3

RAW 264.7 cells = assay: Endotoxin-induced TNF-α secretion by RAW264.7 cells in culture medium containing 10% human serum; type: cell-based, murine; settings: endotoxin 10 ng/ml; for TNF-α secretion induced by S. abortus LPS: control 5,726; for TNF-α secretion induced by N. min. LPS: control 8,817
Description: To test the suppression of endotoxin-induced TNF-α secretion under more physiological conditions, LF-33 or polymyxin B was added to human serum (final concentration 10%) before the addition of endotoxin.
Endotoxin induced TNF-α secretion by RAW 264.7 cells. The murine macrophage cell line RAW 264.7 was obtained from the American Type Culture Collection (ATCC, Rockville, Md.) and maintained as described previously (Jeremy, B., Immunol. Today. 16: 417-419 (1995)). The concentration of endotoxin in all buffers and media was controlled to below 0.1 EU/ml. The following protocol was essentially described before and used here with minor modifications (Kelly et al., Infect. Immun. 59: 4491-6 (1991)). Each well of a 96-well tissue culture plate was seeded with 150 μl RAW 264.7 cells at 10^6 cells per ml DMEM (Life Technologies, Gaithersburg, Md.) supplemented with 10% heat-treated fetal bovine serum (Life Technologies), 25 mM HEPES (N-2-hydroxyethylpiperazine-N′-2-ethanesulfonic acid; pH 7.3), penicillin (60 U/ml) and streptomycin (60 μg/ml). After overnight incubation at 37° C. in a 6% CO2 incubator, the medium was aspirated and cells washed with 3-changes of endotoxin-free Hank's balanced salt solution (HBSS, Life Technologies) supplemented with 25 mM HEPES (pH 7.3). Control endotoxin (10 ng/ml) and test materials were prepared in HBSS-HEPES. After incubation in a 37° C. water bath for 1 h, 0.2 ml of these solutions was added in triplicate to each well and incubated at 37° C. for 6 h. The supernatants were then collected and stored at −70° C. before the measurement of […] activity. Controls included HBSS-HEPES and test materials in the absence of endotoxin. TNF-α activity of the medium and test materials was below […]. The human serum used in some experiments was a pool from normal donors.
Determination of TNF activity. TNF-α activity in the culture supernatant was determined based on its cytotoxicity for the mouse fibrosarcoma cell line WEHI 164 cells (ATCC). […] The antibody at 1:100 dilution completely eliminated the cytotoxicity in the culture supernatant of the RAW 264.7 cell stimulated by endotoxin and in the mouse sera collected 1 h after intraperitoneal injection of endotoxin.
Briefly, the 96-well tissue culture plates were seeded with 100 μl WEHI164 cells (5×10^4 cells) in RPMI-1640 medium (Life Technologies) containing 10% heat-treated fetal bovine serum, 25 mM HEPES (pH 7.3), penicillin (60 U/ml), streptomycin (60 μg/ml), and actinomycin D (4 μg/ml). After a 2-h incubation at 37° C. in a 6% CO2 incubator, 10 μl twofold serially diluted samples (culture supernatants) or standards (murine recombinant TNF-α, Genzyme) was added to each well, and incubated for 20 h. Cell viability was then determined by the addition of 10 μl MTT (Thiazolyl blue, Sigma) stock solution (5 mg/ml in saline) to each well, and the incubation was allowed to continue for 6 h. 180 μl of acid-isopropanol (containing 40 mM HCl) was added to dissolve the generated dark blue crystals. The plate was read at 570 nm with a reference of 630 nm in a microplate reader. The amount of TNF-α that led to 50% killing of the seeded cells was defined as one unit, equivalent to approximately 15 pg of recombinant TNF-α under the present condition. A standard curve was obtained by incubating known amounts of the recombinant TNF-α with the WEHI cells.

M. smegmatis BH1 = settings: 10, 20, 30, 40, 50, or 100 μM, FIG. 10

CSCC[C@H](NC(=O)[C@H](CC(N)=O)NC(=O)[C@H](CCCNC(=N)N)NC(=O)[C@H](CCC(N)=O)NC(=O)[C@H](Cc1c[nH]c2ccccc12)NC(=O)[C@H](CCC(N)=O)NC(=O)[C@H](Cc1ccccc1)NC(=O)[C@H](CS)NC(=O)[C@H](CCCCN)NC(=O)[C@@H](NC(=O)[C@H](C)NC(=O)[C@H](CCC(=O)O)NC(=O)[C@@H]1CCCN1C(=O)[C@H](CCC(N)=O)NC(=O)[C@H](CO)NC(=O)[C@@H](NC(=O)[C@H](C)NC(=O)[C@H](CS)NC(=O)[C@H](Cc1c[nH]c2ccccc12)NC(=O)[C@H](CCC(N)=O)NC(=O)[C@@H](NC(=O)[C@H](CO)NC(=O)[C@H](CCCNC(=N)N)NC(=O)[C@H](CCCNC(=N)N)NC(=O)[C@H](CCCNC(=N)N)NC(=O)[C@H](CCCNC(=N)N)NC(=O)CN)C(C)C)C(C)C)[C@@H](C)O)C(=O)N[C@@H](CCCNC(=N)N)C(=O)N[C@@H](CCCCN)C(=O)N[C@H](C(=O)N[C@@H](CCCNC(=N)N)C(=O)NCC(=O)N1CCC[C@H]1C(=O)O)C(C)C [LF-33] (H-GRRRRSVQWCAVSQPEATKCFQWQRNMRKVRGP-OH)
IC50 (P. aer. LPS): 2080 nM
IC50 (S. abortus LPS): 390 nM
TNF-α secretion induced by S. abortus LPS (RAW 264.7 cells; polypeptide 2.5 μM): 5,627 +/− 1037 pg/ml
TNF-α secretion induced by N. min. LPS (RAW 264.7 cells; polypeptide 2.5 μM): 7,998 +/− 976 pg/ml
TNF-α secretion induced by Lipid A (RAW 264.7 cells; polypeptide 10 μM, control 2,663): 185* +/− pg/ml
TNF-α secretion induced by S. abortus LPS (RAW 264.7 cells; polypeptide 10 μM): 1,191* +/− pg/ml
TNF-α secretion induced by N. min. LPS (RAW 264.7 cells; polypeptide 10 μM): 6,473 +/− 787 pg/ml
inhibition of mycobacterial growth (M. smegmatis BH1): dose dependent inhibition of mycobacterial growth
